From the supplement of paper PMC10849652 come the findings set out here.

Chains of the proteins cited; added tags and fusions are not shown. Lines headed by an entry give the natural chain unless they say otherwise; changes in a name come on top.
UniProt Q9Y3L5: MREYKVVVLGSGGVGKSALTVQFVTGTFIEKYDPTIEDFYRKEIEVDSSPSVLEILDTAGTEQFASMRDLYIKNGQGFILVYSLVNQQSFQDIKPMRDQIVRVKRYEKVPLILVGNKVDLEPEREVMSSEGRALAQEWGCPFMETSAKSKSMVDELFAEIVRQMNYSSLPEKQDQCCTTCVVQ
UniProt Q92696: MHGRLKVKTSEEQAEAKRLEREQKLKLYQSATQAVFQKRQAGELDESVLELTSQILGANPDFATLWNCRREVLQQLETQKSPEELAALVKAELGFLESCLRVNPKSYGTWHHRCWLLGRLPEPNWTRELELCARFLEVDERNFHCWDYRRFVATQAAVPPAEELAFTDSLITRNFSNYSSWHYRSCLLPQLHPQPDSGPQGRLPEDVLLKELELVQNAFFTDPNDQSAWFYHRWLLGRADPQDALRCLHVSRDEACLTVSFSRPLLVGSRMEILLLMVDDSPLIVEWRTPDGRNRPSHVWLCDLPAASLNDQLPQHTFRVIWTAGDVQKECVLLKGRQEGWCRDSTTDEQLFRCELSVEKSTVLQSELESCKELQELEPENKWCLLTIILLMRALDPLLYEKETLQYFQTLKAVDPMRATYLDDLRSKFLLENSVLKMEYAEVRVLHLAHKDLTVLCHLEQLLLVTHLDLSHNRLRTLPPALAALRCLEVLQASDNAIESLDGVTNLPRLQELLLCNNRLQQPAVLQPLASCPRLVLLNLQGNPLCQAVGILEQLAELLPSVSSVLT
UniProt Q92878: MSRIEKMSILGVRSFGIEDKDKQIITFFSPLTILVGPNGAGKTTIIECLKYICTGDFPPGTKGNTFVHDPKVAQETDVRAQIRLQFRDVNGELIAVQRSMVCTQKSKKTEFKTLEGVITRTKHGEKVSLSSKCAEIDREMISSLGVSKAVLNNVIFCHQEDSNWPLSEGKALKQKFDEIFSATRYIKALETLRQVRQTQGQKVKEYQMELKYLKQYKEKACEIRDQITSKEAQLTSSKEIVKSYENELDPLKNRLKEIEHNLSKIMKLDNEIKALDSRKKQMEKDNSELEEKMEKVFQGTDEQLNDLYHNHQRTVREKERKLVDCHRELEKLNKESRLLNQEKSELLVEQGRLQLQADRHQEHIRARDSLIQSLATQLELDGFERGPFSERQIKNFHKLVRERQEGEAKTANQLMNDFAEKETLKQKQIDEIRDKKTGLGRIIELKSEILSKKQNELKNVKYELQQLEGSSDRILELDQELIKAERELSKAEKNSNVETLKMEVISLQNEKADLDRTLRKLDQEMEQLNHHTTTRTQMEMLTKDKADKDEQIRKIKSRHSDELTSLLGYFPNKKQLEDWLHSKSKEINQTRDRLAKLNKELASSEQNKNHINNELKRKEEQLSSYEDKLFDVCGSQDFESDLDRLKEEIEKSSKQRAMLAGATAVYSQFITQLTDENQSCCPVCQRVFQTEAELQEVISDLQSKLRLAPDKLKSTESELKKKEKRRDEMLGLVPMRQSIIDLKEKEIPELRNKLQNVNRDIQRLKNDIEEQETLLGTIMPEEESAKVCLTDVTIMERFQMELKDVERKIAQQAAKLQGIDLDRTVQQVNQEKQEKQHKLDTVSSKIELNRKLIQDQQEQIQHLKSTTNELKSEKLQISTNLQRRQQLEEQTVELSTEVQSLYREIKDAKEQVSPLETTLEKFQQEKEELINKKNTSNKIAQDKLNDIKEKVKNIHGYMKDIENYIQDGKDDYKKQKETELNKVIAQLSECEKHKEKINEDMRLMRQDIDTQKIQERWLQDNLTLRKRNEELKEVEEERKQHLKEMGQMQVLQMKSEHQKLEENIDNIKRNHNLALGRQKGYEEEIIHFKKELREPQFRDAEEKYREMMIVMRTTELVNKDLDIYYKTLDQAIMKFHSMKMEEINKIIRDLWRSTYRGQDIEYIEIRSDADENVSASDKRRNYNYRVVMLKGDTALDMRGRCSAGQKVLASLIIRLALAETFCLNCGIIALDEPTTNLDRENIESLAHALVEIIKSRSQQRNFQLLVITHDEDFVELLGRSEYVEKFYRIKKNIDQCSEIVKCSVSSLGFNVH
UniProt Q96D70: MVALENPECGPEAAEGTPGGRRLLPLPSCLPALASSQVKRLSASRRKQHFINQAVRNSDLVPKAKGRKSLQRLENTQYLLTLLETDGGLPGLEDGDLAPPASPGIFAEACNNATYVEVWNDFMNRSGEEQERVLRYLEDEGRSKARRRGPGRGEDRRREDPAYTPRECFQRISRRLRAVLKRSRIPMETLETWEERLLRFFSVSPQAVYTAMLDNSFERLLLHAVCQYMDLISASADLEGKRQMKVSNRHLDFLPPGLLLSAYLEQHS
UniProt Q9H082: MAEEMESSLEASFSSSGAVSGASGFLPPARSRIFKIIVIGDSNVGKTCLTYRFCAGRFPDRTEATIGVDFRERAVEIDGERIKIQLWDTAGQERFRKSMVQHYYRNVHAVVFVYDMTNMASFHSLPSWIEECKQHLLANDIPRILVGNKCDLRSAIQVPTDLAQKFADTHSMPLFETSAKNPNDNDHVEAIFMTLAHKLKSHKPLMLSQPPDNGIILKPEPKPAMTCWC
UniProt P11233: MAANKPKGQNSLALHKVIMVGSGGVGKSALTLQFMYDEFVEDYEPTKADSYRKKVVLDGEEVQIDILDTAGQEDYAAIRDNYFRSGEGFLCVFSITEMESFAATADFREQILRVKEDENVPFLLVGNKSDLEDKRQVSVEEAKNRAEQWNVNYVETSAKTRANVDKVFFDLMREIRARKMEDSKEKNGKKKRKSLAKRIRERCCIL
UniProt Q8WZA2: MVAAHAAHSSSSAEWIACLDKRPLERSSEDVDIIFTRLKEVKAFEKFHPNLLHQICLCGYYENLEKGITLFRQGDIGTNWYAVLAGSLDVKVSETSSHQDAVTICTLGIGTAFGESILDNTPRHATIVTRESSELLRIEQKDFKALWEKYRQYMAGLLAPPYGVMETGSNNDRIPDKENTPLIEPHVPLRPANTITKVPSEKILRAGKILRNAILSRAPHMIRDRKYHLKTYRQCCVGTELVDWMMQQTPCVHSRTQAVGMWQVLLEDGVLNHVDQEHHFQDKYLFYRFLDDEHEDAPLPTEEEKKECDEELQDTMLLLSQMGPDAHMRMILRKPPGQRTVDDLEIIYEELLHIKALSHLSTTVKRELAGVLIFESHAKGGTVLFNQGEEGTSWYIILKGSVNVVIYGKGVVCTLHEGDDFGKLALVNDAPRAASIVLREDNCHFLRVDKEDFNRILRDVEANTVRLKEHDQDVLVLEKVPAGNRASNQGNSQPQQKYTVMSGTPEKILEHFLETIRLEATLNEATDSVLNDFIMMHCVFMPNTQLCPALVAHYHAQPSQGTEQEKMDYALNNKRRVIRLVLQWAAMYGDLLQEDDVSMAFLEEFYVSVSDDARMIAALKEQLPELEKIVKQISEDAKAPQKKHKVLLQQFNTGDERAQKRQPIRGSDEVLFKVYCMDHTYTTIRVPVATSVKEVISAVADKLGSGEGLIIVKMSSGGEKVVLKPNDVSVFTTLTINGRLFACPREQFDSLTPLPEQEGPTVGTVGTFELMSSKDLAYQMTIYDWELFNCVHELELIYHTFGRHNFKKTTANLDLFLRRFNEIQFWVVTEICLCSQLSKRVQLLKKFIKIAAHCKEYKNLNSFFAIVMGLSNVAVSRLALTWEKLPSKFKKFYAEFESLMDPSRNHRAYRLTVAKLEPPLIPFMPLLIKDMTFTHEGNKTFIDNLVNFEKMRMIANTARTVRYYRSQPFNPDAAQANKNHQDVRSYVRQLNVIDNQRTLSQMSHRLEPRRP
UniProt Q6WKZ4: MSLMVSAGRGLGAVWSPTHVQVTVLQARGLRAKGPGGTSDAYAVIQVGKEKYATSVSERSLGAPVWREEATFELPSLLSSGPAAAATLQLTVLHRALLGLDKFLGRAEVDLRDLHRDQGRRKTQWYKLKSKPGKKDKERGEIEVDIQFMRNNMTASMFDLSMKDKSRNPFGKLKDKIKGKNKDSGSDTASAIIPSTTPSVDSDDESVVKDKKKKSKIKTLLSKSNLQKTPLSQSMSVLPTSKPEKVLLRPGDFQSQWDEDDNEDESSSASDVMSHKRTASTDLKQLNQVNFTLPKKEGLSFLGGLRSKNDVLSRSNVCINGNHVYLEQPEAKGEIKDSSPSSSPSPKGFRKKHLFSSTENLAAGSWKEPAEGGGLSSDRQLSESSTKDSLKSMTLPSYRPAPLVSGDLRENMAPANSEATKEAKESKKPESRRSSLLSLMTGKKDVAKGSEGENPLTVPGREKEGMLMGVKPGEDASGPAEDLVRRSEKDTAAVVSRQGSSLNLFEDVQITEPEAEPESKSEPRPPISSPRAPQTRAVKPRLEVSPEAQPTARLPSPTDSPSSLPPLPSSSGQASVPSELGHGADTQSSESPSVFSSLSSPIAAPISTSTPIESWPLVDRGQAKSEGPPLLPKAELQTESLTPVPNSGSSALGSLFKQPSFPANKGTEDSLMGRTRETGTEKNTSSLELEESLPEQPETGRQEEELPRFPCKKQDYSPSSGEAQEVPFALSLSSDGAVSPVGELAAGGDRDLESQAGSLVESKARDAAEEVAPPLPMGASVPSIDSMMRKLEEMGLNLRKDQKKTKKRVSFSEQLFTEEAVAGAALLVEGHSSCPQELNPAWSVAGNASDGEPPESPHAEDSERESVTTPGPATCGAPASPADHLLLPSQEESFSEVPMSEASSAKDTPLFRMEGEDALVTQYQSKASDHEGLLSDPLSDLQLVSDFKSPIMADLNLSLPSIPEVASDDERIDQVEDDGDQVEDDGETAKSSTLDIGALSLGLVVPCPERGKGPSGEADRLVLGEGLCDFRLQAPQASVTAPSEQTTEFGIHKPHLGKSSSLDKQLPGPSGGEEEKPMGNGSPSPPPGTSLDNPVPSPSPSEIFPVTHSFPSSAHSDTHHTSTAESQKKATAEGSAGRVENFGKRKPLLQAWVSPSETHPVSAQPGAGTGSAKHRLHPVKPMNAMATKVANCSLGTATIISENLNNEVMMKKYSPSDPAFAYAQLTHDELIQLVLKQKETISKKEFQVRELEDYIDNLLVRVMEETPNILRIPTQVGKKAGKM
UniProt P06400: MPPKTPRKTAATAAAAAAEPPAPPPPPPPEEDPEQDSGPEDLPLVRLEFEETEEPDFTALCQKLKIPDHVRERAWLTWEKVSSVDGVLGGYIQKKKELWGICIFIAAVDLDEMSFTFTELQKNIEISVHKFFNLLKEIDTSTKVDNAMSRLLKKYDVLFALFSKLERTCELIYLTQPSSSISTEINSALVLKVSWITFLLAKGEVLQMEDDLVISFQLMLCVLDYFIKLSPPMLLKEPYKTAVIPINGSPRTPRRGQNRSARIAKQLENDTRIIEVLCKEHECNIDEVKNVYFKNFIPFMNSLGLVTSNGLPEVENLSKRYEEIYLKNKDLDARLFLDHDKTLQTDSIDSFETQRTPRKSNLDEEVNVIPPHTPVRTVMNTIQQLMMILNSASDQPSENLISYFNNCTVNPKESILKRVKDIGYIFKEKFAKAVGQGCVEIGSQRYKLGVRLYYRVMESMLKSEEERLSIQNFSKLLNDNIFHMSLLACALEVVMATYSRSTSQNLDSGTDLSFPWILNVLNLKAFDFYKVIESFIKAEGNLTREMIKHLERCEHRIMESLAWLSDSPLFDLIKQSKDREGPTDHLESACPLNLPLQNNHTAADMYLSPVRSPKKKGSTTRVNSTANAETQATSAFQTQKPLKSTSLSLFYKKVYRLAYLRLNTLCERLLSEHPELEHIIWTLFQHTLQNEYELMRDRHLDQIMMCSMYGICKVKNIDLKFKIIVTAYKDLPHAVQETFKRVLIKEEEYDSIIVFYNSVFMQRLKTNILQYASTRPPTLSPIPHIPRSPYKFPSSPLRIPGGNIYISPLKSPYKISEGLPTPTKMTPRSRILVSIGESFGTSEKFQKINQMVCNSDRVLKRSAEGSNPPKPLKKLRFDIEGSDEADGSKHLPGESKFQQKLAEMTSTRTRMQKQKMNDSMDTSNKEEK
UniProt Q86X27: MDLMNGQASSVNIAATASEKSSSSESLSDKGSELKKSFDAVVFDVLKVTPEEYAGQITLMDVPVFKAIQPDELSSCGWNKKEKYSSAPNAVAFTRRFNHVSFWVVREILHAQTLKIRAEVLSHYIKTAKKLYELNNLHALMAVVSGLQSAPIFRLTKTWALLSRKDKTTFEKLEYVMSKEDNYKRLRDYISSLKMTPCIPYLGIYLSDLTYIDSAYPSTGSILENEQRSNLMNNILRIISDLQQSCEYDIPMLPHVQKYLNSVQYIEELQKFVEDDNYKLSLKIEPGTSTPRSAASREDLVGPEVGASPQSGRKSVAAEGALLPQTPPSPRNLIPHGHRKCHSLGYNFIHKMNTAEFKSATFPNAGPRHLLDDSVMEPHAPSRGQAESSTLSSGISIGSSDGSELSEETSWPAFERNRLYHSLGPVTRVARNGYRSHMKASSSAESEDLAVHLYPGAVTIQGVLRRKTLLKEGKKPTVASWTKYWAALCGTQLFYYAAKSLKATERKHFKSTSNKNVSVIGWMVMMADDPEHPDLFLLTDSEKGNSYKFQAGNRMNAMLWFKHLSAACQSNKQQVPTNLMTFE

This is one part of the list.

Compound in this test: C1CCN(C1)C(=O)NC2=CC=CC(=C2)NC3=NC=C(C(=N3)NCCC4=CN=CN4)Br
The test can be described thus: log2 fold change, soluble protein after heating vs DMSO (PISA); higher = thermal stabilisation; K562 cells, 10 uM, 30 min; active = over 0.2 and 3.5 SD of the protein, either way, in both replicates (recomputed). The method, boiled down: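 Soluble protein was quantified by TMTpro 16plex LC-MS/MS after channel sums were equalised. It was obtained as the supernatant after 21,000xg for 90 min from pooled aliquots of K562 cells (2×10^6 cells/mL, 10 μM compound, 30 min) heated for 3 min across 48°C-58°C and extracted in PBS with 0.5% NP-40 at 4°C. Thermal stability values are relative to control samples and come from duplicates. They are given as log2 fold changes.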
In the case of RAB3IL1 (UniProt Q8TBN0), the log2 fold change is inactive: -0.004.

Regarding RAP2C (UniProt Q9Y3L5), the log2 fold change is inactive: -0.008.

RABGAP1L isoform 3 (UniProt Q5R372): the log2 fold change was inactive: 0.004.

In the case of RABGGTA (UniProt Q92696), the log2 fold change is inactive: 0.005.

In the case of RAD50 isoform 2 (UniProt Q92878), the log2 fold change is inactive: -0.034.

In the case of RAP1B (UniProt F5GZG1), the log2 fold change was inactive: 0.131.

RBM25 (UniProt P49756): the log2 fold change was inactive: -0.076.

As to R3HDM4 (UniProt Q96D70), the log2 fold change is inactive: -0.031.

As for RBM33 (UniProt Q96EV2), the log2 fold change is inactive: 0.034.

RBBP5 isoform 2 (UniProt Q15291): the log2 fold change was inactive: 0.042.

For RAB33B (UniProt Q9H082), the log2 fold change was inactive: -0.016.

RARS (UniProt P54136): the log2 fold change is inactive: 0.07.

Regarding RBM26 isoform 2 (UniProt Q5T8P6), the log2 fold change is inactive: -0.027.

In the case of RAD51B (UniProt O15315), the log2 fold change is inactive: -0.089.

For the target RAB5IF isoform 5 (UniProt Q9BUV8), the log2 fold change is inactive: 0.027.

Turning to RAB8B (UniProt Q92930), the log2 fold change was inactive: 0.027.

With RACK1 (UniProt D6RHH4), the log2 fold change was inactive: 0.078.

As for RALA (UniProt P11233), the log2 fold change is inactive: -0.066.

Turning to RAB3IL1 (UniProt E9PK89), the log2 fold change was inactive: -0.162.

RABGAP1L isoform 5 (UniProt Q5R372): the log2 fold change is inactive: 0.023.

On to RAVER1 (UniProt E9PAU2), for which the log2 fold change was inactive: -0.05.

Take RAI14 isoform 2 (UniProt Q9P0K7): the log2 fold change is inactive: 0.04.

As to RALY (UniProt Q9UKM9), the log2 fold change was inactive: 0.008.

Consider RAPGEF4 (UniProt Q8WZA2), for which the log2 fold change was inactive: -0.038.

For the target RB1CC1 (UniProt Q8TDY2), the log2 fold change is inactive: -0.024.

With RAB11FIP1 (UniProt Q6WKZ4), the log2 fold change was inactive: -0.049.

On to RB1 (UniProt P06400), for which the log2 fold change was inactive: -0.065.

Take RAB3GAP2 (UniProt Q9H2M9): the log2 fold change was inactive: -0.068.

For RAF1 isoform 2 (UniProt P04049), the log2 fold change is inactive: -0.121.

Take RALGPS2 (UniProt Q86X27): the log2 fold change is inactive: -0.06.
